Drawing on PMC5069676, this text covers binding for 1 substance.

Protein sequences, listed by entry. Tags and fused reporters are not part of them.
UniProt P12004: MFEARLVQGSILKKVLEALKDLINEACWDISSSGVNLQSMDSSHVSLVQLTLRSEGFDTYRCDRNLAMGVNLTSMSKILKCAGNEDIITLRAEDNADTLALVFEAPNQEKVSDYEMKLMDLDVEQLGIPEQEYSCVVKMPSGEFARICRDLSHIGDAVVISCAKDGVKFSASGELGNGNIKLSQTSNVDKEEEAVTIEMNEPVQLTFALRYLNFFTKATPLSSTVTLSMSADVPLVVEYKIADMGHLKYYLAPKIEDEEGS
UniProt P43490: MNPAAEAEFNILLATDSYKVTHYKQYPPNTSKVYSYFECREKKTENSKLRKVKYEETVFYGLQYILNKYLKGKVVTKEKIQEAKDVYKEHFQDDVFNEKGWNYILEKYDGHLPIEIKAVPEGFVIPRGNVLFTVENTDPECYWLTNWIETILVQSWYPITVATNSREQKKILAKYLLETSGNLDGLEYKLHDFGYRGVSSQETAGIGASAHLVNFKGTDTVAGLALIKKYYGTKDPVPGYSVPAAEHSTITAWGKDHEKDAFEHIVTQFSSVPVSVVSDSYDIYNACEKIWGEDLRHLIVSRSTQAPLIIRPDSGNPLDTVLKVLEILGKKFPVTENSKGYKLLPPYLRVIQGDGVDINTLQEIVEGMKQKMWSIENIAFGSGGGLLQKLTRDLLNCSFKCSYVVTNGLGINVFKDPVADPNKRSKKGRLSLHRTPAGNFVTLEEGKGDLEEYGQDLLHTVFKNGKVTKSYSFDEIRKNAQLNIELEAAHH

Results are given in words; binding and its absence hold for the method and conditions named. Some entries that bind do so weakly or less than the wild type.

For this assay, the target named is recombinant proliferating cell nuclear antigen (PCNA) (UniProt P12004). Nature of the assay: SPR; Biacore T200; PCNA immobilised on a CM5 chip; p21 (2 uM), NAMPT (120 nM) or a mixture of both injected at 20 ul/min for 100 s, dissociation followed for 400 s; both purified.

Take “purified nicotinamide phosphoribosyltransferase (NAMPT) (from UniProt P43490 1-491) (enzyme)”: the binding result was “binds”.
